This assay concerns the target T1, gremlin-1 in normal and cancer tissues (tissue array slides) (UniProt O60565).
T1 sequence (looked up): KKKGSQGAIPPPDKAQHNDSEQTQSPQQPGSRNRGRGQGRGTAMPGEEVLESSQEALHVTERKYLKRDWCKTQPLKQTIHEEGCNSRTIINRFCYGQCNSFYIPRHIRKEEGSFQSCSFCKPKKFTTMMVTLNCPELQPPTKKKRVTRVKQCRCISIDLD
In words: immunohistochemical staining of tissue array slides with FITC-labelled O-13.

No constants are given. Whether binding was seen depends on the method and setting. Some results given as binding are weak or reduced against the parent protein; the word gives no strength.

B1: O-13 antibody (antibody, V domains shown)
VH: EVQLLESGGGLVQPGGSLRLSCAASGFTFSSYDMSWVRQAPGKGLEWVSAISYDNGNTYYADSVKGRFTISRDNSKNTLYLQMNSLRAEDTAVYYCAKDGYHNEIAPFDYWGQGTLVTVSS
VL: QSVLTQPPSASGTPGQRVTISCSGSSSNIGSNDVNWYQQLPGTAPKLLIYYDSKRPSGVPDRFSGSKSGTSASLAISGLRSEDEADYYCATWDDSLSAYVFGGGTKLTVL
B1: the binding result is given as “binds”.

The values above are taken from patent US20150158938A1 (SNU R AND DB FOUNDATION, published 2015).
